Construct, isoform or probe ends are uncertain for at least one entry. Negatives hold for the conditions tested. Where a protein sequence is shown, tags need not be part of it.

In the series the target is T1, ArgR (Streptomyces coelicolor M145) (UniProt Q9L1A5).
T1 sequence (looked up, limits assumed): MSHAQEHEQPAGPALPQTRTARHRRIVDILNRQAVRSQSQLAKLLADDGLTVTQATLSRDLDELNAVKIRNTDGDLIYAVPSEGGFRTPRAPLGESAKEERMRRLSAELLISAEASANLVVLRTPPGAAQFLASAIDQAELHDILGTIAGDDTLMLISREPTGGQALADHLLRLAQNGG
The series is described as follows: EMSA. Conditions: L-arginine (10 mM in binding buffer); 15 uL reaction with 5 uL buffer (10 mM Tris-HCl pH 7.4, 5 mM MgCl2, 2.5 mM CaCl2, 250 mM KCl, 0.5 mM DTT, 10 mM L-arginine), poly(dIdC) 1.3 ug/mL, 10% glycerol; recombinant protein; protein details: Strep-tag; label: 6-FAM; flanks not given. On the technique in general: In EMSA bound probe runs differently from free probe, usually more slowly.
For “AGGCTGCCGCGCGAGCGAGCAGTAGCGTGCGGTCATGGGCATCAGGGTGCCGTCCGGGCCGGTCCCGGCGCCTGAGTCGGGGGGTACTCAAGTCACCCTGTATCAGGGATGAGTATGCCGACTCATGTTGCCGTGACGACTTCTCTGCGGGACGCGAAGAGGCTGGAGACCCCCTGGCCGTTCACCGGGCGGGCGGACGAACTGGAGCTGGTGCGCGGGTCCGTGG (double strand) [Bidirectional intergenic region SCO6992-3, absR1-2]”, the binding result is given as “no binding”. For the sequence “CAGCCCCTGCTCGGTGAACACCTCGTGGGCCGCCTCCAGCAGAAGCTCCCGGTTGCGCCGCGCGTCGCGTCGCTGCCGGGGCGCTCCGTCGCGTGCGCCGACGGTCATCCTCGCCCTCCGGGTCGTACGAACCGGGGAGTGCTCCCCGTGCTCCGAACACCGATGCTATCGTCGGCCGAGGAAATGGGGAGTGCTCCCCGTTTAATTGTCTCTCTCACCGGAGGTCCCATGACCGCGCCCACCTATGAGGAACTGGCCGCCCTGCGGGCCGTGGGCGCCGTGCACCGGGTGTTCGTGCCGGGCAGCGGGGAGAGCCGGCTGGTGGTGACGCGCGACGCGGCACGGGCCGCGCTCACCGACCCGCGGCTGCGCAACGACATCCGGCACTCCGCTTC (double strand) [Bidirectional intergenic region SCO3769-70]”, the binding result is given as “no binding”. For “CCCGGCTGCTACGGAATTGTTCTCACTGGTGACCACGCTCGGCTGCCCTTTCCTGGCTGTGTCGTCCGGACATCTGCCCGCGAAAACGCACGCGGCCGCGACCCGAATCCTCTTCCAGACCTTGCAAGCAATGTGACGAAAGACTAGAAACACCGGGTAGGTGATCAGTCACGGCGTGGTAACTGCCGCCGCTGGAATGCCTGATGACCGGCCCGTTG (double strand) [Promoter region of SCO6275, cpkA]”, the binding result is on record as “no binding”. The entry for “CCGGAGCGTTCAGCGTTCGTTTATCTCCCCCTGGCACTGTCATCTCCGTCAGACCGTCGCATCGGGGGGCAGACGGATGACGACCGAGCCCACCAGTTAGTGTGCGGCTCCGCGCGCCCGTCCGGCAGCCTACGGGGGAGCTACCGGACGGGCGTTGCTACCTCGTCACGACCCATGAGGAGCGAAGTCCATGAGCGACAAGATGAAGGACGCGGACGCCACA (double strand) [Promoter region of SCO4425, afsS]” is “binds”; for “CCTCCCCCGCCTCAACAGCGTGGCGGTGCGGGCGATGGGCGTCGGGACGGGGCTGCTGACGGTACGGGTGGAGTTGGAGGGGCAAAGCCGAAGAAGCTGATGGAGAACCTGTGATCGGCGTCTCCCACGGCTGACGTGGTCGGCATGAACAAGGCAAACTGACGTGGTTGCTCAGGATGTCTAGGGGGACGGCATGGACGGTGGACCGCGGGTTCCGGAGCAGCGGCGTCCCGGATTCCCGGCGGAAGAGGAGGA (double strand) [Promoter region of SCO4426, afsR]” it is “binds”. Turning to “CGAAGCCCAGCCGTCGATAGCCGAGCACCTCCCGGAGCCGCTCCACGTCGTCCGCCGAATAGGCCCGGTACCCGGCAGCGGTGCGCCCCGACGGCCGAACGAGCCCGATCTCGTCATAGTGATGCAGCGTGCGGACGCTCACGTGGGCCAGCTCGGCCACGCGCCCCACGGTCCAGTGATCCTCCACGGCCCCGACTA (double strand) [Coding region of SCO7698]”, the binding result is given as “no binding”. With “CGAGGACGTCGAGGTCTCCGGCCCCGGCTTCCTCAACATCACCGTCGCCGACCGGGCGATCACCGCGAACCTGGCCGCGCGGCTCGCGGACGGCGAGCGCCTCGGCGTGCCGTTGAAGCAGGACGCGGGCACCACGGTCGTCGACTACGCCCAGCCGAACGTGGCGAAGGAGATGCACGTCGGCCACCTGCGTTCCGCGGTCATCGGCGACGCCCTGCGCTCCATGCTCGACTTCACCGGCGAGAAGACGATCGGCCGGCACCACATCGGCGACTGGGGCACCCAGTTCGGCATGCTCATCCAGTACCTGTTCGAGCACCCCGGCGAGCTGGCCCCGGCCGGGGACATCGACGGCGAGCAGGCCATGTCGAACCTGAACCGGGTGTACAAGGCGTCGCGCGCGGTCTTCGACACGGACGAGGAGTTCAAGGAGCGGGCCCGGCGGCGGGTCGTCGCCCTGCAGTCCGGCGACAAGGAGACCCTCGATCTGTGGCAGC (double strand) [Coding region of SCO3304, argS]” the entry was “no binding”; with “CGCGTGGGGACGAGGACGGGTCGAGGTCTTTCGGTCCTGGCATGGTGACGGAACTCCCGGTCGCACAGCAGGGGTTGTTGGAGCGCCCTGTATGGCCAGGTTAGGGGCGGGGTGGACACGCTGTGTCGTGAATCACGAACTCAGCGTGGAGGTGAGGAAGGGTGCGGTCGACCGAAGAAGTCGTCGAGTCCCTGCGGCAGGCCCTC (double strand) [Bidirectional intergenic region SCO4301-2]”, “no binding”; with “CGCTGCCAGGAGTTGAGGATGCCCTCGGGCACGACCGCCGCAGGCAGTTCCGCGTTCTGAAGGAACTTCAGGCGTGCTCGCGCGATGGTTCGGTCGCGCGCTGTGCTGTCACTGAGCATGGCGCCCCTCCGATGAGCGTGTTTCCGCCATATTACGAACGCGTTTGCACCTGTCAACGGGGGGTTGGGTACGGCTTTTCCCCGCGTTCGCCGTGCCCTGATCAGGGGCGGGCCGGGTGTGTTCCACATTGAAAAAGTCGACGGCGCTCCCCGCCCGCACGCTGTTGGGCAGCACCGCACGAGAGCGCGGAGGCTCCCCGCCGAGCAGTCGAACCCTGGAGGACCCAT (double strand) [Bidirectional intergenic region SCO0255-6]”, “binds”. On to “CGGATACTCGCACAAGCAGAATTTAAGAATTCTACTCAGCGCAGCTTCCCGTATTCTTCTGCCCGCTTTCTTCGGACCTAAACACAAAGATTTCACGACTAACGATCTTCACATTTCGGACACGTCTCGCACGGGTTACGCGATTGTGACCCGATCCACATGCTGCCCGATTTGCGGCTTACGCACCCGTCAAATCGCCCCATAACGCCGTCGTCTCGCGCGGAAGCACGCGCCCGCGTGATAACACAAGCGGCACTCATTCGTAACCCCATCCGGCGATGCAATTTCGAATTTCGCTGGGTAAATTCAATTTGCATGACTGCCGCGCAAGCAGACCTGCAAATCGATCGTCC (double strand) [Bidirectional intergenic region SCO1863-4, ectA]”, for which the binding result is reported as “binds”. “CGGCCGAGGTCCACTGCGCCATGGAAATCAGTCCACCTTCCCCAAATTGGCCATGGTTGACTCTTCTTCTGAAGCCACAGGGTGTCATGTGGCAGTCCACTACCACCACCCCAGGGGGCACTTCTTGTCCAGGCAGTCCAGACAGTCGAGGCAATCCGGGCAGTCCGGATGGTCCGGGCGACTCGCGCGGCGGCTGACGCAGCTCTACGGCGGTCTCGTCCTGTACGGAGCGAGTTCGGCGCTGCTGG (double strand) [Bidirectional intergenic region SCO1417-8]”: the binding result is given as “no binding”. Take “CGGTACGGCCTCAACACATTGACGGTGGTGTCGGGAATCACCCGTCCTGTGTTGAGGCCCGAATCCGATCGTTCGGTGGATGACGGGTGGGGGAGTGCTTGCCACGATGGACCCGGTTCGAAAACTGGTCCGGAGCCAGCCAAAGATCGGGCGGCACCCCGTCGCGGCCGGTCAGGACGGCCGCGACCGGCACCCCATCCGCTCATGGGAGTGCGGAGAACG (double strand) [Promoter region of SCO5877, redD]”: the binding result is on record as “no binding”. “CGTATGACCCGCCCGGACACCGACGGCTCCGCCGCCCGGCTCTCCCTCGTCCCCCTCACCCTCCCTCTCCCCCTCCCCCGTTCCACCCGTTCCCCGGGAGTCACCGCATGACGACGCTCACGACGACGCCGGACGGGAGCGCGGCCCGCAGGTCCGTTCCGCCGCCCTCCCCCGCCCCGGCCGCGGGCCGGCGCCGGCAGGGCGGCACCGTCCTCGCGGTGCCCGCGCTGGTCT (double strand) [Promoter region of SCO0454]”: the binding result is “no binding”.

With “GACGCACATCATGGAGACCGTCGACATCGGCGTCCCCCTGCGCACCGTCTACGACCAGTGGACGCAGCTCCAGGACTTCAGCGACTTCACCAAGGGCGTGCAGAGCGTCAGCCCCCACGACGAGACGACCTCGGACTGGACCGCCAAGATCGCTTTCTCGACCCGCAGCTGGAAG (double strand) [Coding region of SCO0654]”, the binding result is “no binding”. In the case of “GAGGTGGTGCGTGGTCATGGGGCCAGCGTACTCCTCATTCGAAAGTCTGTTCTATCCATGGCGTCGCCGTTGTTCGTCGTCGTTCGTCGTCGGTCCGTGACTGCCTGCTCTTTCGATACGCCGGTGTATCCGATACATTCCCGTATCGAACCGAGCGAAGGGTCCGGACATGACGGCGAAGGCGACCACCGGGCGGGTGACCAGGAGGCGCGTGCACACCCGTGCGAACCTCCTGGACGCCGCGTTCGCGGTGTTCGCCGCCAAGGGCTTCGGACGGGTGTCGATCGAGGAGGTCTGCGA (double strand) [Bidirectional intergenic region SCO7302-3]”, the binding result was “no binding”.

For the sequence “GCAGGGCGCGAGCTTCTCGGTGATCGACATCACGACCACCGAGGGGGAGATGCCCGAGGTCACGGACGTCTCCTGAGCCCTGTCCGGACACCCCGCCGGGCCATGGCATGATCGAGCGCATGCGTGAACGTGCAGTGGCCGCGTGCGACGGGGCTTCGAAGGGAAACCCGGGTCCGGCCGGCTGGGCCTGGGTGGTCGCCGACGCG (double strand) [Promoter region of SCO7284]”, the binding result was “no binding”. With “GCGACCTCGCCTGGTTCCACGACATGCACATCGGCTACATGCCGTACTACATCAACGCGTTCGCCTTCTACGGCCTGCTCACCGAGCTGTGCGCCCGCTGGCTCGGCAGCGACGGCGTGGGCCTGCAGAACCGCGTCAAGACCGACATGTCCAGCCTGCGCACCGTCGAGTCGGCCAAGGAGGTCTGGTCGGTCGCCCAGGCCGCCAAGAACGA (double strand) [Coding region of SCO5896, redH]” the entry was “binds”; with “GCGTAGGTGACGCTCCATCAGTGAGCTTCTTCGATGTGGCCACCGATCGGGTGACGGGCCGTGAAGCGCAACGAGCGAGGCCCCCGGGCTGTTGATCGAGATGTCTGACGTCTCAATCACGTTGCTCGGGGGCCTCGTTGGTCATGCATCCTGCCGCACTTGACCTGCCGCATGCACTCGTGGAGTGGGCCACCATGCT (double strand) [Bidirectional intergenic region SCO5326-7]”, “binds”.

The values above are taken from article PMC5839063.
